Experimental data from publication PMC10432399.
These are yes or no findings as the source states them, for the method shown. For some assays here: In cells and extracts the contact can be indirect. Some binding calls cover weakened binding; strength is not graded here. For some assays here: Where a sequence is shown, tags or fusion partners need not be part of it.

Sequences of proteins named here, by UniProt entry; tags and fusion partners are left off. Residues count along the entry.
UniProt P05106, residues 742-788: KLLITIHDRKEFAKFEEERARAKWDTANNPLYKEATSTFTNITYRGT

Key:
Histidine-tagged Gα13 = biological target: T1, Histidine-tagged Gα13 (UniProt P27601); assay: ELISA; His-Gα13 (5 μg/mL) coated on 96-well microtiter plates; GST-β3CD, GST, mP6 or control peptide added for 1 h at room temperature in Tris-NP40 buffer (50 mM Tris, 10 mM MgCl2, 150 mM NaCl, 1% NP-40), then 0.25 μg/mL GST-RGS for 2 h; bound RGS detected with anti-p115 RhoGEF; both purified
T1 sequence: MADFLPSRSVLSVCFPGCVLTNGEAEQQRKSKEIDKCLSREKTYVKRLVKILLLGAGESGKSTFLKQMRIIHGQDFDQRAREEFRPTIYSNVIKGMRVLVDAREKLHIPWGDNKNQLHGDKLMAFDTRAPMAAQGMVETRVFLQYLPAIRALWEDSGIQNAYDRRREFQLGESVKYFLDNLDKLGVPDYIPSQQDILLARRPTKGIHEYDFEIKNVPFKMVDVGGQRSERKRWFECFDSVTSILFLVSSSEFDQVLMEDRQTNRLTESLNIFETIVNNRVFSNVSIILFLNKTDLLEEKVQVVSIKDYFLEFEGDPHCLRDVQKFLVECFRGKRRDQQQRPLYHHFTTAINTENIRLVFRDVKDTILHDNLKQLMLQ

[1] = biological target: T2, Gα13 (endogenous, mouse platelets) (mouse (endogenous in platelets)) (UniProt P27601); assay: co-IP; synthetic mP6 (200 μM, DMSO) added to wild-type mouse platelets before thrombin; read out as loss of Gα13 from the p115RhoGEF immunoprecipitate; only the binder purified
T2 sequence: T1 sequence

[2] = biological target: T3, p115RhoGEF (endogenous, mouse platelets) (mouse (endogenous in platelets)) (UniProt Q61210); assay: co-IP; wild-type mouse platelets pre-treated with control peptide (myr-FAAAKL) or mP6 (200 μM, DMSO) for 3 min, thrombin 0.03 U/mL for 10 seconds; IP with anti-p115RhoGEF, blot for Gα13
T3 sequence: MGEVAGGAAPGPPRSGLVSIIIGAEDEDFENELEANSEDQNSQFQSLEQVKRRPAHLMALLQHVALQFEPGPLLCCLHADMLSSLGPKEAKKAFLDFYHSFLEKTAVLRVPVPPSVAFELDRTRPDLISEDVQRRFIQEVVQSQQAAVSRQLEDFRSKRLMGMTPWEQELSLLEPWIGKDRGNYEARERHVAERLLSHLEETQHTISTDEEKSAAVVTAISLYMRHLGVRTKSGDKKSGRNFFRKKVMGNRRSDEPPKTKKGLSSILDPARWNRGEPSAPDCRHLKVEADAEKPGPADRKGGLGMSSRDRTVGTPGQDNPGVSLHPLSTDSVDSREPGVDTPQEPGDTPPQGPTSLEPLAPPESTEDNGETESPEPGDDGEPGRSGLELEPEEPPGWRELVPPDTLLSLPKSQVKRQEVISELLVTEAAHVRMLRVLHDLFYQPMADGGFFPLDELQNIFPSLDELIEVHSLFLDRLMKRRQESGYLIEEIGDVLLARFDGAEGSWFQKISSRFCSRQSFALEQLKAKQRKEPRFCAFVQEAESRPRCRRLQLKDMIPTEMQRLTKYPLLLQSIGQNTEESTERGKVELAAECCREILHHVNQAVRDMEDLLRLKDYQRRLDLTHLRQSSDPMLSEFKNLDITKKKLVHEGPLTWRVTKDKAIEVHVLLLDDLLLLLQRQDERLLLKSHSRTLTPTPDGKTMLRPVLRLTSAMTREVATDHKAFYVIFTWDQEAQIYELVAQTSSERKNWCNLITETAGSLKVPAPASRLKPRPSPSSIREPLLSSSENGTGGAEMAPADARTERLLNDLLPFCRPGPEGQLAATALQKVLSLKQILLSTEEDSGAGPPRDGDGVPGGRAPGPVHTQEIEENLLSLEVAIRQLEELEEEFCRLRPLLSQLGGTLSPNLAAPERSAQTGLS

[3] = biological target: T3, p115RhoGEF (endogenous, mouse platelets) (mouse (endogenous in platelets)); assay: co-IP; washed mouse platelets (WT or β3-/-; pre-treated with aspirin 500 μM and RGDS or RGES 2 mM, or Eptifibatide 40 μM or vehicle), resting or thrombin-stimulated; lysed in HEPES-NP40 buffer; IP with anti-p115RhoGEF or IgG, blot for Gα13; low level in resting platelets, enhanced by thrombin, almost 3-fold higher in β3-/- platelets

Question: Which binding (Histidine-tagged Gα13) does the source give for “GST-β3 cytoplasmic domain fusion protein (from UniProt P05106 742-788) (domain or fragment)” here?
Answer: Its binding is “binds”.

Question: For FEEERA (N-terminal myristoyl (Myr-)) [mP6 (Myr-FEEERA)], which binding [1] is on record?
Answer: Its binding is “binds”.

Question: What about the binding (Histidine-tagged Gα13) of the same molecule?
Answer: Its binding is “binds”.

B1: Gα13 (endogenous, mouse platelets) (protein, UniProt P27601 1-377)
chain: T1 sequence
Question: B1 was tested. Which binding [2] did it give?
Answer: The binding was “binds”.

Question: What about the binding [3] of the same molecule?
Answer: Its binding is “binds”.
